# In the supplement of paper PMC8728848:
# The list shows a part of the results.
# What was measured:
# Experiment in all cases: glycan array binding signal (z-score within array); higher = stronger binding
# Settings in all cases: glycan notation: IUPAC condensed, linker removed
# Neu5Ac(a2-3)Gal(b1-4)Glc = target: Neu5Ac(a2-3)Gal(b1-4)Glc
# Procedure, shortened: (§1)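 Glycan array data were curated from 3228 arrays in the Consortium for Functional Glycomics database and kept only where the protein sequence was available. Glycan names were converted to IUPAC-condensed notation, and columns mapping to the same glycan were averaged. The binding signal is a within-array Z-score, averaged across arrays of the same protein sequence at different concentrations or buffers and across linkers. Negative Z-scores can be read as non-binding.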
# [1] = target: Neu5Ac(a2-3)Gal(b1-4)GlcNAc
# Procedure, shortened: as §1
# [2] = target: Neu5Ac(a2-3)Gal(b1-4)GlcNAc(b1-2)Man
# Procedure, shortened: as §1
# [3] = target: Neu5Ac(a2-3)Gal(b1-4)GlcNAc(b1-2)Man(a1-3)[GlcNAc(b1-4)][Neu5Ac(a2-3)Gal(b1-4)GlcNAc(b1-2)Man(a1-6)]Man(b1-4)GlcNAc(b1-4)GlcNAc
# Procedure, shortened: as §1
# [4] = target: Neu5Ac(a2-3)Gal(b1-4)GlcNAc(b1-2)Man(a1-3)[Neu5Ac(a2-3)Gal(b1-4)GlcNAc(b1-2)Man(a1-6)]Man(b1-4)GlcNAc(b1-4)GlcNAc
# Procedure, shortened: as §1
# [5] = target: Neu5Ac(a2-3)Gal(b1-4)GlcNAc(b1-2)Man(a1-3)[Neu5Ac(a2-3)Gal(b1-4)GlcNAc(b1-2)Man(a1-6)]Man(b1-4)GlcNAc(b1-4)[Fuc(a1-6)]GlcNAc
# Procedure, shortened: as §1
# [6] = target: Neu5Ac(a2-3)Gal(b1-4)GlcNAc(b1-2)Man(a1-3)[Neu5Ac(a2-6)Gal(b1-4)GlcNAc(b1-2)Man(a1-6)]Man(b1-4)GlcNAc(b1-4)GlcNAc
# Procedure, shortened: as §1
# [7] = target: Neu5Ac(a2-3)Gal(b1-4)GlcNAc(b1-2)[Neu5Ac(a2-3)Gal(b1-4)GlcNAc(b1-4)]Man(a1-3)[GlcNAc(b1-4)][Neu5Ac(a2-3)Gal(b1-4)GlcNAc(b1-2)[Neu5Ac(a2-3)Gal(b1-4)GlcNAc(b1-6)]Man(a1-6)]Man(b1-4)GlcNAc(b1-4)GlcNAc
# Procedure, shortened: as §1
# [8] = target: Neu5Ac(a2-3)Gal(b1-4)GlcNAc(b1-2)[Neu5Ac(a2-3)Gal(b1-4)GlcNAc(b1-4)]Man(a1-3)[GlcNAc(b1-4)][Neu5Ac(a2-3)Gal(b1-4)GlcNAc(b1-4)Man(a1-6)]Man(b1-4)GlcNAc(b1-4)GlcNAc
# Procedure, shortened: as §1
# [9] = target: Neu5Ac(a2-3)Gal(b1-4)GlcNAc(b1-2)[Neu5Ac(a2-3)Gal(b1-4)GlcNAc(b1-6)]Man(a1-6)[Neu5Ac(a2-3)Gal(b1-4)GlcNAc(b1-2)Man(a1-3)]Man(b1-4)GlcNAc(b1-4)GlcNAc
# Procedure, shortened: as §1
# [10] = target: Neu5Ac(a2-3)Gal(b1-4)GlcNAc(b1-2)[Neu5Ac(a2-3)Gal(b1-4)GlcNAc(b1-6)]Man(a1-6)[Neu5Ac(a2-3)Gal(b1-4)GlcNAc(b1-2)Man(a1-3)][GlcNAc(b1-4)]Man(b1-4)GlcNAc(b1-4)GlcNAc
# Procedure, shortened: as §1
# [11] = target: Neu5Ac(a2-3)Gal(b1-4)GlcNAc(b1-3)Gal
# Procedure, shortened: as §1
# [12] = target: Neu5Ac(a2-3)Gal(b1-4)GlcNAc(b1-3)Gal(b1-3)GlcNAc
# Procedure, shortened: as §1
# [13] = target: Neu5Ac(a2-3)Gal(b1-4)GlcNAc(b1-3)Gal(b1-4)GlcNAc
# Procedure, shortened: as §1
# [14] = target: Neu5Ac(a2-3)Gal(b1-4)GlcNAc(b1-3)Gal(b1-4)GlcNAc(b1-2)Man(a1-3)[Neu5Ac(a2-3)Gal(b1-4)GlcNAc(b1-3)Gal(b1-4)GlcNAc(b1-2)Man(a1-6)]Man(b1-4)GlcNAc(b1-4)GlcNAc
# Procedure, shortened: as §1
# [15] = target: Neu5Ac(a2-3)Gal(b1-4)GlcNAc(b1-3)Gal(b1-4)GlcNAc(b1-3)Gal(b1-4)GlcNAc
# Procedure, shortened: as §1
# [16] = target: Neu5Ac(a2-3)Gal(b1-4)GlcNAc(b1-3)Gal(b1-4)GlcNAc(b1-3)Gal(b1-4)GlcNAc(b1-2)Man(a1-3)[Neu5Ac(a2-3)Gal(b1-4)GlcNAc(b1-3)Gal(b1-4)GlcNAc(b1-3)Gal(b1-4)GlcNAc(b1-2)Man(a1-6)]GalNAc
# Procedure, shortened: as §1
# [17] = target: Neu5Ac(a2-3)Gal(b1-4)GlcNAc(b1-3)Gal(b1-4)GlcNAc(b1-3)GalNAc
# Procedure, shortened: as §1
# [18] = target: Neu5Ac(a2-3)Gal(b1-4)GlcNAc(b1-3)Gal(b1-4)GlcNAc(b1-3)[Neu5Ac(a2-3)Gal(b1-4)GlcNAc(b1-3)Gal(b1-4)GlcNAc(b1-6)]GalNAc
# Procedure, shortened: as §1
# [19] = target: Neu5Ac(a2-3)Gal(b1-4)GlcNAc(b1-3)Gal(b1-4)GlcNAc(b1-6)[Gal(b1-3)]GalNAc
# Procedure, shortened: as §1
# [20] = target: Neu5Ac(a2-3)Gal(b1-4)GlcNAc(b1-3)Gal(b1-4)[Fuc(a1-3)]GlcNAc
# Procedure, shortened: as §1
# [21] = target: Neu5Ac(a2-3)Gal(b1-4)GlcNAc(b1-3)GalNAc
# Procedure, shortened: as §1
# [22] = target: Neu5Ac(a2-3)Gal(b1-4)GlcNAc(b1-3)[Neu5Ac(a2-3)Gal(b1-4)GlcNAc(b1-6)]GalNAc
# Procedure, shortened: as §1
# [23] = target: Neu5Ac(a2-3)Gal(b1-4)GlcNAc(b1-6)GalNAc
# Procedure, shortened: as §1
# [24] = target: Neu5Ac(a2-3)Gal(b1-4)GlcNAc(b1-6)[Gal(b1-3)]GalNAc
# Procedure, shortened: as §1
# [25] = target: Neu5Ac(a2-3)Gal(b1-4)GlcNAc(b1-6)[Neu5Ac(a2-3)Gal(b1-3)]GalNAc
# Procedure, shortened: as §1
# [26] = target: Neu5Ac(a2-3)Gal(b1-4)GlcNAc6S
# Procedure, shortened: as §1
# [27] = target: Neu5Ac(a2-3)Gal(b1-4)[Fuc(a1-3)]GlcNAc
# Procedure, shortened: as §1
# [28] = target: Neu5Ac(a2-3)Gal(b1-4)[Fuc(a1-3)]GlcNAc(b1-2)Man
# Procedure, shortened: as §1
# [29] = target: Neu5Ac(a2-3)Gal(b1-4)[Fuc(a1-3)]GlcNAc(b1-3)Gal
# Procedure, shortened: as §1
# [30] = target: Neu5Ac(a2-3)Gal(b1-4)[Fuc(a1-3)]GlcNAc(b1-3)Gal(b1-4)GlcNAc
# Procedure, shortened: as §1
# [31] = target: Neu5Ac(a2-3)Gal(b1-4)[Fuc(a1-3)]GlcNAc(b1-3)Gal(b1-4)[Fuc(a1-3)]GlcNAc(b1-3)Gal(b1-4)[Fuc(a1-3)]GlcNAc
# Procedure, shortened: as §1
# [32] = target: Neu5Ac(a2-3)Gal(b1-4)[Fuc(a1-3)]GlcNAc(b1-3)GalNAc
# Procedure, shortened: as §1
# [33] = target: Neu5Ac(a2-3)Gal(b1-4)[Fuc(a1-3)]GlcNAc(b1-6)[Gal(b1-3)]GalNAc
# Procedure, shortened: as §1
# [34] = target: Neu5Ac(a2-3)Gal(b1-4)[Fuc(a1-3)]GlcNAc(b1-6)[Neu5Ac(a2-3)Gal(b1-3)]GalNAc
# Procedure, shortened: as §1
# [35] = target: Neu5Ac(a2-3)Gal(b1-4)[Fuc(a1-3)]GlcNAc6S
# Procedure, shortened: as §1
# [36] = target: Neu5Ac(a2-3)Gal6S(b1-4)GlcNAc
# Procedure, shortened: as §1
# [37] = target: Neu5Ac(a2-3)Gal6S(b1-4)[Fuc(a1-3)]GlcNAc
# Procedure, shortened: as §1
binder,measurement,setting,value
SynCAM (Mus musculus) (protein) MASAVLPSGSQCAAAAAVAAAAAPPGLRLRLLLLLLSAAALIPTGDGQNLFTKDVTVIEGEVATISCQVNKSDDSVIQLLNPNRQTIYFRDFRPLKDSRFQLLNFSSSELKVSLTNVSISDEGRYFCQLYTDPPQESYTTITVLVPPRNLMIDIQKDTAVEGEEIEVNCTAMASKPATTIRWFKGNKELKGKSEVEEWSDMYTVTSQLMLKVHKEDDGVPVICQVEHPAVTGNLQTQRYLEVQYKPQVHIQMTYPLQGLTREGDAFELTCEAIGKPQPVMVTWVRVDDEMPQHAVLSGPNLFINNLNKTDNGTYRCEASNIVGKAHSDYMLYVYDPPTTIPPP,glycan array binding signal (z-score),Neu5Ac(a2-3)Gal(b1-4)Glc,0.141
same,glycan array binding signal (z-score),[1],0.426
same,glycan array binding signal (z-score),[2],-0.036
same,glycan array binding signal (z-score),[3],-1.56
same,glycan array binding signal (z-score),[4],-0.835
same,glycan array binding signal (z-score),[5],0.033
same,glycan array binding signal (z-score),[6],-0.54
same,glycan array binding signal (z-score),[7],0.594
same,glycan array binding signal (z-score),[8],-0.33
same,glycan array binding signal (z-score),[9],1.17
same,glycan array binding signal (z-score),[10],0.14
same,glycan array binding signal (z-score),[11],-0.085
same,glycan array binding signal (z-score),[12],-0.53
same,glycan array binding signal (z-score),[13],0.31
same,glycan array binding signal (z-score),[14],1.26
same,glycan array binding signal (z-score),[15],-0.733
same,glycan array binding signal (z-score),[16],1.17
same,glycan array binding signal (z-score),[17],-0.739
same,glycan array binding signal (z-score),[18],-0.09
same,glycan array binding signal (z-score),[19],-0.784
same,glycan array binding signal (z-score),[20],1.16
same,glycan array binding signal (z-score),[21],0.12
same,glycan array binding signal (z-score),[22],-0.987
same,glycan array binding signal (z-score),[23],0.475
same,glycan array binding signal (z-score),[24],-0.051
same,glycan array binding signal (z-score),[25],-1.12
same,glycan array binding signal (z-score),[26],-0.022
same,glycan array binding signal (z-score),[27],-0.809
same,glycan array binding signal (z-score),[28],3.11
same,glycan array binding signal (z-score),[29],-1.35
same,glycan array binding signal (z-score),[30],0.475
same,glycan array binding signal (z-score),[31],0.234
same,glycan array binding signal (z-score),[32],0.588
same,glycan array binding signal (z-score),[33],-0.494
same,glycan array binding signal (z-score),[34],0.098
same,glycan array binding signal (z-score),[35],-0.066
same,glycan array binding signal (z-score),[36],1.57
same,glycan array binding signal (z-score),[37],0.194

# A section from further up, for reference:
binder,measurement,setting,value
SynCAM (Mus musculus) (protein) MASAVLPSGSQCAAAAAVAAAAAPPGLRLRLLLLLLSAAALIPTGDGQNLFTKDVTVIEGEVATISCQVNKSDDSVIQLLNPNRQTIYFRDFRPLKDSRFQLLNFSSSELKVSLTNVSISDEGRYFCQLYTDPPQESYTTITVLVPPRNLMIDIQKDTAVEGEEIEVNCTAMASKPATTIRWFKGNKELKGKSEVEEWSDMYTVTSQLMLKVHKEDDGVPVICQVEHPAVTGNLQTQRYLEVQYKPQVHIQMTYPLQGLTREGDAFELTCEAIGKPQPVMVTWVRVDDEMPQHAVLSGPNLFINNLNKTDNGTYRCEASNIVGKAHSDYMLYVYDPPTTIPPP,glycan array binding signal (z-score),[36],1.57
same,glycan array binding signal (z-score),[37],0.194
